Data on six molecules can be found in article PMC10577314 (Frontiers in Cell and Developmental Biology, 2023).

Sequences of proteins named here, by UniProt entry; tags and fusion partners are left off. A change or cut given only in a name is not applied to a line headed by its entry. A line that says so, or that is headed by a name, gives the form on record, which may keep a tag or linker. Residues count along the entry.
MBP-His10-Sec8c (Q62824, residues 544-975): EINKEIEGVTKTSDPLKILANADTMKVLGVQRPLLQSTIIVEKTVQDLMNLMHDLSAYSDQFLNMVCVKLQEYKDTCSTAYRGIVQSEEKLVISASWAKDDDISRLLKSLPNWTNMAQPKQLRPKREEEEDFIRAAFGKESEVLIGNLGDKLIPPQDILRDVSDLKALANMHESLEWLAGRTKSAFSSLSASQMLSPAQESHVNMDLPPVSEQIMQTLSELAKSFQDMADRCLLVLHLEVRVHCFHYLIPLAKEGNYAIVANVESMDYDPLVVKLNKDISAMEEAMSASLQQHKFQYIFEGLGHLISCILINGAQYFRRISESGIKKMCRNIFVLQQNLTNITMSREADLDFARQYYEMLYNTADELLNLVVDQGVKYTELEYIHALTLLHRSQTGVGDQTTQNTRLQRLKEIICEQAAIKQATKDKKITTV
MBP-His10-Sec8c-Δ958–971 (Q62824, form named): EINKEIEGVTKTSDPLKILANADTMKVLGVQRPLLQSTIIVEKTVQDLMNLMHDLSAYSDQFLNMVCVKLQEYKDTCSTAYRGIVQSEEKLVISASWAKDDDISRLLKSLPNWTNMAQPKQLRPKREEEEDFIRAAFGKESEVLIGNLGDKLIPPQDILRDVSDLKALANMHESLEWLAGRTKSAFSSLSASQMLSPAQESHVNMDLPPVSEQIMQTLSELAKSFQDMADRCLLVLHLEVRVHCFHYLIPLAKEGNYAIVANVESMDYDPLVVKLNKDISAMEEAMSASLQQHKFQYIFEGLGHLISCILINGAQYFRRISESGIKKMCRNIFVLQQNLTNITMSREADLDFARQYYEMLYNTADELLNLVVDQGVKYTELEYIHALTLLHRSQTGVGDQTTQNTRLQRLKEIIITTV

In test [1] the target is C-terminal half of Sec8 (Sec8c, aa544–975) (rat) (UniProt Q62824). In words: SEC; Sec8c or Sec8c-Δ958–971 (1 mg/mL) mixed with SAP102 truncation at molar ratio 1:2, 4°C for 30 min; Superdex 200 Increase 10/300 GL; 20 mM HEPES pH 7.5, 100 mM NaCl, 1 mM DTT; peak fractions checked by SDS-PAGE; both purified.
The target is the same in test [2]. In words: condition: 300 µM SAP102 in the syringe, 30 µM Sec8c in the cell; ITC; 300 µM SAP102 truncation in the syringe titrated into 30 µM Sec8c (or Sec8c-Δ958–971) in the cell; 20 mM HEPES pH 7.5, 100 mM NaCl, 1 mM DTT; one-set-of-sites model; control titration (protein to buffer) subtracted; both ….
For test [3], the target named is MBP-His10-Sec8c (rat) (UniProt Q62824). The experiment in a line: pull-down; MBP-His10-Sec8c or MBP-His10-Sec8c-Δ958–971 (1 mg/mL) mixed with excess SAP102 truncation (molar ratio 1:2–5), held on amylose beads, 4°C for 1–2 h; 20 mM HEPES pH 7.5, 100 mM NaCl, 1 mM DTT, 1% glycerol; SDS-PAGE; MBP-His10 tag as negative control; both purified.
Test [4] has as its target MBP-His10-Sec8c-Δ958–971 (rat) (UniProt Q62824). The experiment in a line: SEC; Sec8c or Sec8c-Δ958–971 (1 mg/mL) mixed with SAP102 truncation at molar ratio 1:2, 4°C for 30 min; Superdex 200 Increase 10/300 GL; 20 mM HEPES pH 7.5, 100 mM NaCl, 1 mM DTT; peak fractions checked by SDS-PAGE; both purified.
Test [5] deals with Sec8c-Δ958–971 (aa544–975/Δ958–971) (rat) (UniProt Q62824). The experiment in a line: condition: 300 µM SAP102 in the syringe, 30 µM Sec8c-Δ958–971 in the cell; ITC; 300 µM SAP102 truncation in the syringe titrated into 30 µM Sec8c (or Sec8c-Δ958–971) in the cell; 20 mM HEPES pH 7.5, 100 mM NaCl, 1 mM DTT; one-set-of-sites model; control titration (protein to buffer) subtracted; both purified.

In test [6] the target is MBP-His10-Sec8c-Δ958–971 (rat) (UniProt Q62824). In words: pull-down; MBP-His10-Sec8c or MBP-His10-Sec8c-Δ958–971 (1 mg/mL) mixed with excess SAP102 truncation (molar ratio 1:2–5), held on amylose beads, 4°C for 1–2 h; 20 mM HEPES pH 7.5, 100 mM NaCl, 1 mM DTT, 1% glycerol; SDS-PAGE; MBP-His10 tag as negative control; both purified.

These are yes or no findings as the source states them, for the method shown. For part of these data: Sequences can lack the tags named with a protein.

B1: SAP102 PDZ3 (aa399–493) (domain or fragment, UniProt Q62936 399-493)
chain: TREPRKIILHKGSTGLGFNIVGGEDGEGIFVSFILAGGPADLSGELRRGDRILSVNGVNLRNATHEQAAAALKRAGQSVTIVAQYRPEEYSRFES
Turning to B1, the binding result in test [1] and in test [2] was “no binding” in each case.

B2: His6-SUMO-SAP102-PDZ3 (domain or fragment, UniProt Q62936 399-493)
chain: TREPRKIILHKGSTGLGFNIVGGEDGEGIFVSFILAGGPADLSGELRRGDRILSVNGVNLRNATHEQAAAALKRAGQSVTIVAQYRPEEYSRFES
For the molecule B2, the binding result in test [3] was “no binding”.

B3: SAP102 PDZ1-PDZ2 (aa144–331) (domain or fragment, rat, UniProt Q62936 144-331, looked up)
chain: MFKYEEIVLERGNSGLGFSIAGGIDNPHVPDDPGIFITKIIPGGAAAMDGRLGVNDCVLRVNEVDVSEVVHSRAVEALKEAGPVVRLVVRRRQPPPETIMEVNLLKGPKGLGFSIAGGIGNQHIPGDNSIYITKIIEGGAAQKDGRLQIGDRLLAVNNTNLQDVRHEEAVASLKNTSDMVYLKVAKPG
notes: also called tandem PDZ1-PDZ2; source: E. coli BL21-DE3, purified (Ni-HiTrap HP, SENP2 cleavage, Superdex 200); not shown: His6-SUMO, N-terminal, cleaved
As to B3, the binding result in test [4] and in test [5] was “no binding” each time.

B4: His6-SUMO-SAP102-PDZ1-PDZ2 (domain or fragment, UniProt Q62936 144-331)
chain: MFKYEEIVLERGNSGLGFSIAGGIDNPHVPDDPGIFITKIIPGGAAAMDGRLGVNDCVLRVNEVDVSEVVHSRAVEALKEAGPVVRLVVRRRQPPPETIMEVNLLKGPKGLGFSIAGGIGNQHIPGDNSIYITKIIEGGAAQKDGRLQIGDRLLAVNNTNLQDVRHEEAVASLKNTSDMVYLKVAKPG
Regarding B4, in test [6], the binding entry is on record as “no binding”.

B5: SAP102 PDZ1 (aa144–236) (domain or fragment, UniProt Q62936 144-236)
chain: MFKYEEIVLERGNSGLGFSIAGGIDNPHVPDDPGIFITKIIPGGAAAMDGRLGVNDCVLRVNEVDVSEVVHSRAVEALKEAGPVVRLVVRRRQ
B5: the binding entry in test [1] and in test [2] was “no binding” each time.

B6: His6-SUMO-SAP102-PDZ1 (domain or fragment, UniProt Q62936 144-236)
chain: MFKYEEIVLERGNSGLGFSIAGGIDNPHVPDDPGIFITKIIPGGAAAMDGRLGVNDCVLRVNEVDVSEVVHSRAVEALKEAGPVVRLVVRRRQ
Consider B6, for which the binding entry in test [3] was “no binding”.
